Laboratory results: the supplement of paper PMC12819154, “High-throughput peptide-centric local stability assay extends protein–ligand identification to membrane proteins, tissues and bacteria” (Nature Structural & Molecular Biology, 2025)
The list shows a part of the results. Small differences around the control level are noise.

By UniProt entry, the sequences of proteins in these tests, tags left out. Where a name states a change or a piece, a line headed by the entry shows the natural chain unless it says otherwise.
UniProt Q8K199: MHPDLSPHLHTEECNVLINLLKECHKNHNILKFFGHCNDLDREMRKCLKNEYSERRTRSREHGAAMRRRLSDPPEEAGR
UniProt Q8R1P4: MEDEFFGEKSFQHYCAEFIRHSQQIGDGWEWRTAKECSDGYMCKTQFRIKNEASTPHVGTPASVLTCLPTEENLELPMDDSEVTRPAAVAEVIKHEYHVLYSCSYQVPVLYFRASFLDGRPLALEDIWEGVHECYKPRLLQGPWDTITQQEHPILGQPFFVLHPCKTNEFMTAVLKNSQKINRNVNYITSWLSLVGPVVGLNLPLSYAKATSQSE
UniProt Q8K4G5: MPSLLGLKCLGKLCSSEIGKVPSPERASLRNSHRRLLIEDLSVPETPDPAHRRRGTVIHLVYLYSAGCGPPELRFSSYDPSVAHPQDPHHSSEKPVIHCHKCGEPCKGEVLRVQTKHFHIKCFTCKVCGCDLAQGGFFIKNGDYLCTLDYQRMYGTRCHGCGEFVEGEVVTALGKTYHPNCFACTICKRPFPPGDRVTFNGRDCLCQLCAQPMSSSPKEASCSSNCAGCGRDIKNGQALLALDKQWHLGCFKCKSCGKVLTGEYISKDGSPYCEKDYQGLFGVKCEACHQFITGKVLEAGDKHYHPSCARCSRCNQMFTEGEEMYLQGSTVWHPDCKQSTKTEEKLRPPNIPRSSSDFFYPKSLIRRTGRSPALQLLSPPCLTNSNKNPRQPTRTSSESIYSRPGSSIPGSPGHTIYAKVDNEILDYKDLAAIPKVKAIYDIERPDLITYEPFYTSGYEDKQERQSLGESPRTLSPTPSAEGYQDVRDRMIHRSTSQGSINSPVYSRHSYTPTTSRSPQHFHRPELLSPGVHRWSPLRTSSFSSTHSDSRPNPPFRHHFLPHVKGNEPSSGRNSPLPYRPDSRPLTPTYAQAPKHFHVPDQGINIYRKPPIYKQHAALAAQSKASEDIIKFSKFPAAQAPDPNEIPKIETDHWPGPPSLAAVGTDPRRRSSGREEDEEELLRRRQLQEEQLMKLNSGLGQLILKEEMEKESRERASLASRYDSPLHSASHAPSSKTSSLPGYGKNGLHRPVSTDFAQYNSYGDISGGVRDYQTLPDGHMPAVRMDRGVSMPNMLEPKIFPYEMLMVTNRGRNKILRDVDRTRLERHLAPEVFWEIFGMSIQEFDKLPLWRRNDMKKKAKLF
UniProt Q8N7N5: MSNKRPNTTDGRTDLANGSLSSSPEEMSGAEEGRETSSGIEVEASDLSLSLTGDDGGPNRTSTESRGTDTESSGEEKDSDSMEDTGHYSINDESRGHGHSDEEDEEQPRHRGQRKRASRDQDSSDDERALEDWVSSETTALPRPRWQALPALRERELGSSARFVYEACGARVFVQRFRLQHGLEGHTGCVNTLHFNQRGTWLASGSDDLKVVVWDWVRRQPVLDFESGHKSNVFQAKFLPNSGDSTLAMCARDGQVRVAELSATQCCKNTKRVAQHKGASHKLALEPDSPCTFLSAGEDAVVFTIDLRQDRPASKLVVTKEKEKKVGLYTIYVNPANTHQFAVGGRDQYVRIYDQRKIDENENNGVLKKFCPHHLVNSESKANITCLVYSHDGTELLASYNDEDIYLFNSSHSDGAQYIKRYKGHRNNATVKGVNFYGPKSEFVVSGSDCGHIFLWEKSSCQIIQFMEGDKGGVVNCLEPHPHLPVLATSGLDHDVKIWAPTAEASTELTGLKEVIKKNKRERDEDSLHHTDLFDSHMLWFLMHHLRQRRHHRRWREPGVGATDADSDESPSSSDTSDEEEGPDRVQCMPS
UniProt Q8K4F5: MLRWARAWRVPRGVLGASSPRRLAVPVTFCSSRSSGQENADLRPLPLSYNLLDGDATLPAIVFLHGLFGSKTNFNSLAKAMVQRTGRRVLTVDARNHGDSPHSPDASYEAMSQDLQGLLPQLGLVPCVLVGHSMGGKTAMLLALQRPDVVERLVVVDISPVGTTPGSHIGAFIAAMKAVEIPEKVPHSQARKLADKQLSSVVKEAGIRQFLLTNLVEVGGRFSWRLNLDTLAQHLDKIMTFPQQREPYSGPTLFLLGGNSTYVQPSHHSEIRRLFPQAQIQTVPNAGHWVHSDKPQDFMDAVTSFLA
UniProt Q8QZX5: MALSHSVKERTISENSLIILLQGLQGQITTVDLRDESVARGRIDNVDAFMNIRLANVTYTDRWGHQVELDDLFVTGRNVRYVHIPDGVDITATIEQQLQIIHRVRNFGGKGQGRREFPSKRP
UniProt Q8K207: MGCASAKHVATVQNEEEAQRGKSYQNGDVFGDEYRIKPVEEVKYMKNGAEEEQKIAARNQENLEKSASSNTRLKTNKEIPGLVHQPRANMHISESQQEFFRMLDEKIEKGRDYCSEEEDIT
UniProt Q8K352: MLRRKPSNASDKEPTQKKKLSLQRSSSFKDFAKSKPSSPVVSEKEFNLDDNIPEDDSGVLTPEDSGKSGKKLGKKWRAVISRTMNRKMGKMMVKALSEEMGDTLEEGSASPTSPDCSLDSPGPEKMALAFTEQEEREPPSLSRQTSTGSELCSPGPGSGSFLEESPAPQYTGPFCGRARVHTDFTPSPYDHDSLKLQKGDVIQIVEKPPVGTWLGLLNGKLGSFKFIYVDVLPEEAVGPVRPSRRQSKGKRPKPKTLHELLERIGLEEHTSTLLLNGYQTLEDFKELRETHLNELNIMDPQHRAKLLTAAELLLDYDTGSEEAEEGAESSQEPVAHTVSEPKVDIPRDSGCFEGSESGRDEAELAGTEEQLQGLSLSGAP
UniProt Q8R035, whole entry: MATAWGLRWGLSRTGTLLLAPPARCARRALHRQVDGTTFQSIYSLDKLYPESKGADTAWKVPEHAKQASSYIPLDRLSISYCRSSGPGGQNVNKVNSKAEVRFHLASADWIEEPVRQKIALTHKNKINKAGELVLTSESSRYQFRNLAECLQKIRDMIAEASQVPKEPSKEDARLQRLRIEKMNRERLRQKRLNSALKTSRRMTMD
UniProt Q8R1M0: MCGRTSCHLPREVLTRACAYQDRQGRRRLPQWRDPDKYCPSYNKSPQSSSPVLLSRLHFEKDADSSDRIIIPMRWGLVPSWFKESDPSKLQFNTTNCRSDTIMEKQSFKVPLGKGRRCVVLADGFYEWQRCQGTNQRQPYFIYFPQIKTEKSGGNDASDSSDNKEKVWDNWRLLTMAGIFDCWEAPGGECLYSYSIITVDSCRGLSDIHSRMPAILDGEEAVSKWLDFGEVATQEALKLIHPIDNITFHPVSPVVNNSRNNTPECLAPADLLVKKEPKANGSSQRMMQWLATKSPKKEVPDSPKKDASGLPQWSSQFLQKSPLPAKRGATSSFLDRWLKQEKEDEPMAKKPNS
UniProt Q8K4S1: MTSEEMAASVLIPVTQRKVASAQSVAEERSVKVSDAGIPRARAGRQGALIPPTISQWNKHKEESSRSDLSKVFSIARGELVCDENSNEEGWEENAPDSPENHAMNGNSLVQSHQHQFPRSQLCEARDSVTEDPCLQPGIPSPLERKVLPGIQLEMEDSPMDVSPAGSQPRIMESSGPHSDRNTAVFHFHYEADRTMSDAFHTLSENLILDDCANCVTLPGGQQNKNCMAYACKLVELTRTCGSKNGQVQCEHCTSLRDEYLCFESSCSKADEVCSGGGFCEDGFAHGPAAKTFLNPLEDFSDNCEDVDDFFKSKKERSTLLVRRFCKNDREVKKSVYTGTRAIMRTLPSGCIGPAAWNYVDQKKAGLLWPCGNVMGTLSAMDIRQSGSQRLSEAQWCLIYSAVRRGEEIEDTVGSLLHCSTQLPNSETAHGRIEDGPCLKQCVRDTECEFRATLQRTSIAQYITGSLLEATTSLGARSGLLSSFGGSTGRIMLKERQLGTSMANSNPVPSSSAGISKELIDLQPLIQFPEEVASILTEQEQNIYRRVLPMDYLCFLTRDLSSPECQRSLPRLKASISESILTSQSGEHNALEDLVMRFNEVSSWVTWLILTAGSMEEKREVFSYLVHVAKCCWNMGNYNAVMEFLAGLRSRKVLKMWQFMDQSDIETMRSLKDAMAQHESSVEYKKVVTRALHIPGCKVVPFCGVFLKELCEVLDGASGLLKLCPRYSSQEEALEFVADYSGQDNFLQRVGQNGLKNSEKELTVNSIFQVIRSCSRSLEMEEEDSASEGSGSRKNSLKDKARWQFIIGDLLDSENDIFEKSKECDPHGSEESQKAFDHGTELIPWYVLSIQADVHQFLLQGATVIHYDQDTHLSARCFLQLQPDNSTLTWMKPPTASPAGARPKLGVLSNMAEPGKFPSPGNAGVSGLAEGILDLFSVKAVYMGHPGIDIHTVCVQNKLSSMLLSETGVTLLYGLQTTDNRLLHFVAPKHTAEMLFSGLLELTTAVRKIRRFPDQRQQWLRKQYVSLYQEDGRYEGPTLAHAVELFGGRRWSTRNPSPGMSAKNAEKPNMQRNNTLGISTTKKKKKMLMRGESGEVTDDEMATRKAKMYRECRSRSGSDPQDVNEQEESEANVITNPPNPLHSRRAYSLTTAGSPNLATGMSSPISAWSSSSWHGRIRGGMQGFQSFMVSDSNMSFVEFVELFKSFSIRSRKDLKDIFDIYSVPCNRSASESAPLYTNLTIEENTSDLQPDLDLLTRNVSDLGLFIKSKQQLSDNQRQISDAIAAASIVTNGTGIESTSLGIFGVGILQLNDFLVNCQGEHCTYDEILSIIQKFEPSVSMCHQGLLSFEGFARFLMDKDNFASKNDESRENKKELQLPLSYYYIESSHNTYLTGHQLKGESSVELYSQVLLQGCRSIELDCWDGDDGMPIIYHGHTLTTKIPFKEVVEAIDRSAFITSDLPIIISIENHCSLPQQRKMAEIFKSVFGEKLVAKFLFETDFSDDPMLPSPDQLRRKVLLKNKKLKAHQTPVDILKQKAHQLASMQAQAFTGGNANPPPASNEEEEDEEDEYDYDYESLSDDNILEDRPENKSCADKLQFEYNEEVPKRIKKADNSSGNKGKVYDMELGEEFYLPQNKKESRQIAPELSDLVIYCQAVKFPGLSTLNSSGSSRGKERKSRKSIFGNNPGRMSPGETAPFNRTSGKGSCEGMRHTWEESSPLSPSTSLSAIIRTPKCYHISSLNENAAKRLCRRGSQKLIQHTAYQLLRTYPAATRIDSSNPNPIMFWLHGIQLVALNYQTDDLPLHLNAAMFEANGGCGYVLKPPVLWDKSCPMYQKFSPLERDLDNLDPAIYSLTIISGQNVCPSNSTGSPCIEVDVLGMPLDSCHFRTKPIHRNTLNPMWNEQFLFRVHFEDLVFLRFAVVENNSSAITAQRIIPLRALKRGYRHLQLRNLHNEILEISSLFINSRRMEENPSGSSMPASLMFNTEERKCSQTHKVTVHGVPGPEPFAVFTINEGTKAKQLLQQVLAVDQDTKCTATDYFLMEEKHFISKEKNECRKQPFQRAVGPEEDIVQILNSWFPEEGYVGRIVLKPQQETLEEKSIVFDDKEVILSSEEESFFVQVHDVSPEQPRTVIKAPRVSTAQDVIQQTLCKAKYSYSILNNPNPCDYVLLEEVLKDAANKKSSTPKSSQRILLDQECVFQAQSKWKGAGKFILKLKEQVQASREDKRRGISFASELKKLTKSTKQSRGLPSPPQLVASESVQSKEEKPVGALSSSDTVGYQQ
UniProt Q8R0X7: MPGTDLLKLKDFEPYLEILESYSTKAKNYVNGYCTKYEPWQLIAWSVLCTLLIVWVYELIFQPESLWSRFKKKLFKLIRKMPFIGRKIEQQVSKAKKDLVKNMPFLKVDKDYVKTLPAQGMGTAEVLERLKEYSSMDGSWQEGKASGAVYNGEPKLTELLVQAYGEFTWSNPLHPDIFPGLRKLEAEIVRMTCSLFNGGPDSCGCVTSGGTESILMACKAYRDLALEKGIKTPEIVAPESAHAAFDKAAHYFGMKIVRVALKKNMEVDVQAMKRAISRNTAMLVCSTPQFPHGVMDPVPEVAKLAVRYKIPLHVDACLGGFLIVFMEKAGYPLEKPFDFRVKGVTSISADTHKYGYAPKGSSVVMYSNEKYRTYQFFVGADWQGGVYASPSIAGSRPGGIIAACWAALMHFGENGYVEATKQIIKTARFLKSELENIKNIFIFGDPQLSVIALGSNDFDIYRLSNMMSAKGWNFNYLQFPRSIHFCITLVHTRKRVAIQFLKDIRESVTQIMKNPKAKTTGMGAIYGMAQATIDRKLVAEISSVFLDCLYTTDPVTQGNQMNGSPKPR
UniProt Q8K221: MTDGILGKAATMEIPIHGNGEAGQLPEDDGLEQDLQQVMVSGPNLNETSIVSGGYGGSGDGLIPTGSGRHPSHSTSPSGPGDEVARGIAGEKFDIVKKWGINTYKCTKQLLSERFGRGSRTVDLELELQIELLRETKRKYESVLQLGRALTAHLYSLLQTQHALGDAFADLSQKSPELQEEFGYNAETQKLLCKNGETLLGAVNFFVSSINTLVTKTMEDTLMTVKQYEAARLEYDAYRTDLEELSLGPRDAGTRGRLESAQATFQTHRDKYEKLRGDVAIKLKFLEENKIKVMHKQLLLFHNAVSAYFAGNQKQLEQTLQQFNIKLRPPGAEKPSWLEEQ
UniProt Q8K273: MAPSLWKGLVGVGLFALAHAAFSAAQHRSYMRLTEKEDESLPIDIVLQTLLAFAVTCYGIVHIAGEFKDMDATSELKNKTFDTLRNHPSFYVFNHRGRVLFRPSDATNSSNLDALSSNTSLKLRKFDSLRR

compound: CN[C@@H]1C[C@H]2O[C@@](C)([C@@H]1OC)n1c3ccccc3c3c4c(c5c6ccccc6n2c5c31)C(=O)NC4 [staurosporine]; assay: log2 fold change of tryptic peptide abundance, ligand vs vehicle (limited proteolysis) (log2 ratio); higher = more trypsin-susceptible (destabilized); conditions: ligand concentration: 20 uM; sample: mouse liver crude lysate; replicate design: treated separately

Target | log2 fold change
UniProt Q8R2K7 (peptide sequence: AALHDQLNR, peptide start residue: 20) | -0.12
UniProt Q8K199 (peptide sequence: RLSDPPEEAGR, peptide start residue: 69) | 0.146
UniProt Q8R1P4 (peptide sequence: SFQHYCAEFIR, peptide start residue: 10) | -0.383
UniProt Q8K4G5 (peptide sequence: QSLGESPR, peptide start residue: 465) | -0.289
UniProt Q8N7N5 (peptide sequence: MSNKRPNTTDGR, peptide start residue: 1) | -0.522
UniProt Q8K4F5 (peptide sequence: IMTFPQQR, peptide start residue: 238) | -0.495
UniProt Q8R1S9 (peptide sequence: FLTNGFLGKK, peptide start residue: 52) | 0.144
UniProt Q8R0L1 (peptide sequence: LKGAPPSHYYESFLEK, peptide start residue: 13) | -0.193
UniProt Q8QZX5 (peptide sequence: WGHQVELDDLFVTGR, peptide start residue: 63) | -0.21
UniProt Q8R1G2 (peptide sequence: REDCSPADKPYIEEAR, peptide start residue: 219) | -0.442
UniProt Q8K1A6 (peptide sequence: AQLEQGGAALR, peptide start residue: 884) | 0.5
UniProt Q8K2X2 (peptide sequence: ASSDGKPGGVFDHHVQTAVCDSR, peptide start residue: 2) | 0.00592
UniProt Q8K207 (peptide sequence: EIPGLVHQPR, peptide start residue: 78) | 0.0424
UniProt Q8K352 (peptide sequence: SKPSSPVVSEK, peptide start residue: 34) | 0.146
UniProt Q8K2W9 (peptide sequence: LVHNVHNHITNDKR, peptide start residue: 309) | -0.533
UniProt Q8QZR4 (peptide sequence: DRPAPYKCGIR, peptide start residue: 248) | 0.124
UniProt Q8R035 (peptide sequence: QASSYIPLDR, peptide start residue: 67) | 0.119
UniProt Q8R238 (peptide sequence: LEGEGAEVQLTGK, peptide start residue: 106) | -0.582

Target | log2 fold change
UniProt Q8K2M0 (peptide sequence: ETDPKDKIDIGLPPPR, peptide start residue: 81) | -0.305
UniProt Q8R1M0 (peptide sequence: MMQWLATK, peptide start residue: 286) | 0.344
UniProt Q8K440 (peptide sequence: VLLELEMK, peptide start residue: 599) | -0.535
UniProt Q8K4S1 (peptide sequence: NNTLGISTTK, peptide start residue: 1073) | 0.324
UniProt Q8K268 (peptide sequence: ICVVGENGAGK, peptide start residue: 521) | -0.246
UniProt Q8R0X7 (peptide sequence: TTGMGAIYGMAQATIDRK, peptide start residue: 519) | 0.221
UniProt Q8K341 (peptide sequence: HVIYILK, peptide start residue: 75) | 0.301
UniProt Q8K327 (peptide sequence: SSFIMESQKPNVFSETR, peptide start residue: 471) | -0.475
UniProt Q8K221 (peptide sequence: LRPPGAEKPSWLEEQ, peptide start residue: 327) | -0.725
UniProt Q8R1I1 (peptide sequence: LYSLLFR, peptide start residue: 10) | -0.302
UniProt Q8R010 (peptide sequence: VLSTVHTHSSVK, peptide start residue: 148) | -0.185
UniProt Q8K284 (peptide sequence: DILHATFEESLDKTSHSVGR, peptide start residue: 1293) | 0.497
UniProt Q8R143 (peptide sequence: SRHDEIR, peptide start residue: 153) | 0.151
UniProt Q8K1Y2 (peptide sequence: RIPSWSGRPIWMEK, peptide start residue: 249) | 0.104
UniProt Q8R205 (peptide sequence: RHDLYDIYDLPER, peptide start residue: 187) | -0.429
UniProt Q8K349 (peptide sequence: RLQLLLVGK, peptide start residue: 103) | -0.0842
UniProt Q8K273 (peptide sequence: KFDSLRR, peptide start residue: 125) | -0.11
UniProt Q8K202 (peptide sequence: HFVGILNK, peptide start residue: 102) | 0.311

Two successive records from above:
Target | log2 fold change
UniProt Q8K327 (peptide sequence: SSFIMESQKPNVFSETR, peptide start residue: 471) | -0.475
UniProt Q8K221 (peptide sequence: LRPPGAEKPSWLEEQ, peptide start residue: 327) | -0.725
